Experimental data: PubChem BioAssay AID504744 (Drosophila RNAi Screening Center, 2011)
The deposit covers about 23,000 reagents; below is an unselected part of those with a known target gene and a result. In the full data, 98 (0.43%) are marked active. 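Only hit calls are given; the phospho-dAkt signals, z-scores and hit direction were not deposited.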 Names joined by + are all predicted targets of the reagent.

Purpose: 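Identify dsRNAs that increase or decrease phospho-dAkt after insulin treatment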 (primary screen)
Cell system: Drosophila Kc167 cells
Knock-down reagent: long dsRNA against Drosophila genes, 250 ng dsRNA per well of a 384-well plate
Duration: 3 days of knock-down, then overnight serum-free starvation before stimulation
Challenge: bovine insulin at 387 nM for 10 minutes after 12 h without serum
Measured: 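In-cell antibody fluorescence for phospho-dAkt in each well over DNA-dye signal, with log2 residuals expressed as z-scores adjusted for cell count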
Rule for the call: 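Hit in the insulin screen when the two-replicate mean z-score is more extreme than plus or minus 2.5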

no.	gene	amplicon	call
1	CCT2 (Chaperonin containing TCP1 subunit 2)	DRSC18415	inactive
2	CG1620	DRSC06603	inactive
3	CG4914	DRSC10458	inactive
4	CG16976 (retired record)	DRSC08499	inactive
5	naz (nazgul)	DRSC14790	inactive
6	naz (nazgul)	DRSC16199	inactive
7	Fatp (retired record)	DRSC03054	inactive
8	HP1b (Heterochromatin Protein 1b)	DRSC18418	inactive
9	mRpL16 (mitochondrial ribosomal protein L16)	DRSC18550	inactive
10	clumsy	DRSC03111	inactive
11	CG32536 + CG32537	DRSC20074	inactive
12	CG13056	DRSC09937	inactive
13	CG13223	DRSC06344	inactive
14	RpL37-2 (Ribosomal protein L37-2)	DRSC04584	inactive
15	CG11663	DRSC17793	inactive
16	CG13983	DRSC02315	inactive
17	CG2906	DRSC06841	inactive
18	Rtf1	DRSC04085	inactive
19	Gnpat (Glyceronephosphate O-acyltransferase)	DRSC16960	inactive
20	lbk (lambik)	DRSC07178	inactive
21	S-Lap8 (Sperm-Leucylaminopeptidase 8)	DRSC06870	inactive
22	S-Lap8 (Sperm-Leucylaminopeptidase 8)	DRSC21372	inactive
23	CG7239	DRSC03038	inactive
24	CG6766	DRSC02991	inactive
25	CG30034 (retired record)	DRSC05288	inactive
26	moon (moonshiner)	DRSC19497	inactive
27	CG7300	DRSC03044	inactive
28	CG11147	DRSC02129	inactive
29	beta3GalTII (beta-1,3-Galactosyltransferase II)	DRSC07253	inactive
30	Gr94a (Gustatory receptor 94a)	DRSC13597	inactive
31	CG15262	DRSC01975	inactive
32	CG11898	DRSC14432	inactive
33	Nha2 (Na[+]/H[+] hydrogen antiporter 2)	DRSC14689	inactive
34	Nha2 (Na[+]/H[+] hydrogen antiporter 2)	DRSC15619	inactive
35	Nha2 (Na[+]/H[+] hydrogen antiporter 2)	DRSC15623	inactive
36	Smyd4-2 (SET and MYND domain containing, class 4, member 2)	DRSC10126	inactive
37	CG14983	DRSC08441	inactive
38	CG10353	DRSC19354	inactive
39	Upf2	DRSC18218	inactive
40	CG13127	DRSC02223	inactive
41	Phf5a (PHD finger protein 5a)	DRSC03261	inactive
42	CR14117 (pseudo)	DRSC10121	inactive
43	Polr3K + Tcs1	DRSC05988	inactive
44	CG15145	DRSC02446	inactive
45	shot (short stop)	DRSC05459	inactive
46	shot (short stop)	DRSC05460	inactive
47	shot (short stop)	DRSC07682	inactive
48	Rpp30 (RNaseP protein p30)	DRSC00320	inactive
49	CG14505	DRSC06476	inactive
50	awd (abnormal wing discs)	DRSC16906	inactive
51	Roc1b + Cdc5	DRSC08687	inactive
52	Tak1 (TGF-beta activated kinase 1)	DRSC20390	active
53	Tak1 (TGF-beta activated kinase 1)	DRSC20561	inactive
54	Tak1 (TGF-beta activated kinase 1)	DRSC20562	inactive
55	CG9410 + CG15908	DRSC04976	inactive
56	CG9410 + CG15908	DRSC05001	inactive
57	Csk (C-terminal Src kinase)	DRSC12861	inactive
58	Csk (C-terminal Src kinase)	DRSC15223	inactive
59	cav (caravaggio)	DRSC15995	inactive
60	Gbs-70E (Glycogen binding subunit 70E)	DRSC11055	inactive
61	PI31 (Proteasome inhibitor 31 kDa)	DRSC07306	inactive
62	yuri (yuri gagarin)	DRSC01453	inactive
63	yuri (yuri gagarin)	DRSC01454	inactive
64	yuri (yuri gagarin)	DRSC01943	inactive
65	yuri (yuri gagarin)	DRSC01972	inactive
66	CG18273	DRSC18150	inactive
67	CG18273	DRSC18505	inactive
68	CG13067	DRSC09950	inactive
69	sqz (squeeze)	DRSC16980	inactive
70	Hsp26 (Heat shock protein 26)	DRSC11189	inactive
71	CG13040	DRSC09921	inactive
72	CG31635	DRSC02273	inactive
73	CG31635	DRSC02274	inactive
74	Hr96 (Hormone receptor-like in 96)	DRSC16707	inactive
75	ms(3)K81 (male sterile (3) K81)	DRSC14746	inactive
76	CLS (Cardiolipin synthase)	DRSC15642	inactive
77	Dlc90F (Dynein light chain 90F)	DRSC16649	inactive
78	CG13476	DRSC10019	inactive
79	CG12581	DRSC12206	inactive
80	CG12581	DRSC12207	inactive
81	BBS8 (Bardet-Biedl syndrome 8)	DRSC00360	inactive
82	CG34106	DRSC01578	inactive
83	Su(var)3-9 (Suppressor of variegation 3-9)	DRSC14484	inactive
84	CLIP-190 (Cytoplasmic linker protein 190)	DRSC03283	inactive
85	tpr (tracheal-prostasin)	DRSC04468	inactive
86	inc (insomniac)	DRSC17954	inactive
87	inc (insomniac)	DRSC18512	inactive
88	Tsp42Ee (Tetraspanin 42Ee)	DRSC05947	inactive
89	CG8008	DRSC07053	inactive
90	CG8915	DRSC20119	inactive
91	CG9380	DRSC04549	inactive
92	Rab9Db + Rab9Fa	DRSC18445	inactive
93	CG31693	DRSC03674	inactive
94	dac (dachshund)	DRSC03518	inactive
95	Galphaf (G protein alpha subunit f)	DRSC11171	inactive
96	hog	DRSC19057	inactive
97	tkv (thickveins)	DRSC00860	inactive
98	tkv (thickveins)	DRSC03623	inactive
99	tkv (thickveins)	DRSC22606	inactive
100	Hex-t1 (Hexokinase testis 1)	DRSC16701	inactive
101	CG7156	DRSC16207	inactive
102	Ccdc39 (Coiled-coil domain containing protein 39)	DRSC12286	inactive
103	CG14079	DRSC10083	inactive
104	Pburs (Partner of Bursicon)	DRSC02483	inactive
105	klar (klarsicht)	DRSC08718	inactive
106	klar (klarsicht)	DRSC22393	inactive
107	Bet3 (Blocked early in transport 3)	DRSC10388	inactive
108	mus101 (mutagen-sensitive 101)	DRSC19388	inactive
109	insv (insensitive)	DRSC00579	inactive
110	how (held out wings)	DRSC16966	inactive
111	CG18641	DRSC00527	inactive
112	CG17163	DRSC20901	inactive
113	hgo (homogentisate 1,2-dioxygenase)	DRSC03544	inactive
114	CG8569	DRSC07214	inactive
115	vvl (ventral veins lacking)	DRSC11409	inactive
116	Or47b (Odorant receptor 47b)	DRSC07492	inactive
117	CG15539	DRSC15075	inactive
118	laza (lazaro)	DRSC11661	inactive
119	Mtmr6 (Myotubularin related protein 6)	DRSC04046	inactive
120	Nop56	DRSC14699	inactive
121	CG17219	DRSC00486	inactive
122	CR31822 (pseudo)	DRSC01510	inactive
123	Obp8a (Odorant-binding protein 8a)	DRSC17868	inactive
124	ND-39 (NADH dehydrogenase (ubiquinone) 39 kDa subunit)	DRSC11791	inactive
125	rk (rickets)	DRSC03602	inactive
126	sl (small wing)	DRSC20377	inactive
127	sl (small wing)	DRSC21782	inactive
128	Cmtr1 (Cap methyltransferase 1)	DRSC18400	inactive
129	CG14377	DRSC14837	inactive
130	CG13857	DRSC14707	inactive
131	CG1907	DRSC15399	inactive
132	E(spl)mgamma-HLH (Enhancer of split mgamma, helix-loop-helix)	DRSC16699	inactive
133	Mps1 (Monopolar spindle 1)	DRSC16273	inactive
134	Tsp42Eg (Tetraspanin 42Eg)	DRSC06112	inactive
135	loco (locomotion defects)	DRSC15202	inactive
136	loco (locomotion defects)	DRSC16989	active
137	CG5177	DRSC02824	inactive
138	rasp	DRSC08191	inactive
139	CG11125	DRSC06042	inactive
140	Mes2 (Mesoderm-expressed 2)	DRSC11593	inactive
141	Mes2 (Mesoderm-expressed 2)	DRSC11632	inactive
142	CG33287	DRSC22929	inactive
143	CG8654	DRSC07231	inactive
144	Arpc3A (Actin-related protein 2/3 complex, subunit 3A)	DRSC15596	inactive
145	fig (fos intronic gene)	DRSC16270	inactive
146	TH1	DRSC20289	inactive
147	udd (under-developed)	DRSC06720	inactive
148	CG10581	DRSC11623	inactive
149	Sp7 (Serine protease 7)	DRSC15461	inactive
150	Hrs (Hepatocyte growth factor regulated tyrosine kinase substrate)	DRSC00549	inactive
151	mip40 (Myb-interacting protein 40)	DRSC06541	inactive
152	cbt (cabut)	DRSC00655	inactive
153	CG15147	DRSC02447	inactive
154	CG15147	DRSC02448	inactive
155	CG32099	DRSC21352	inactive
156	Cyp4g15 (Cytochrome P450 4g15)	DRSC20240	inactive
157	CG6738	DRSC16104	inactive
158	CG2656	DRSC12584	inactive
159	Six4	DRSC11881	inactive
160	CG31933	DRSC00457	inactive
161	CG42712 (retired record)	DRSC01038	inactive
162	zormin	DRSC07969	inactive
163	zormin	DRSC08210	inactive
164	zormin	DRSC08212	inactive
165	zormin	DRSC08213	inactive
166	zormin	DRSC08297	inactive
167	zormin	DRSC08571	inactive
168	zormin	DRSC22483	inactive
169	CG32814	DRSC17670	inactive
170	Cyp4e3 (Cytochrome P450 4e3)	DRSC03306	inactive
171	BigH1 (Histone H1 variant BigH1)	DRSC15491	inactive
172	CG33489	DRSC10588	inactive
173	CG31793	DRSC02605	inactive
174	tal-1A + tal-2A + tal-AA + 1 more	DRSC12992	inactive
175	CG13928	DRSC08397	inactive
176	snoRNA:Me28S-C3420b + RpS11	DRSC07396	inactive
177	bam (bag of marbles)	DRSC16907	inactive
178	CG7137	DRSC07017	inactive
179	LManIV (Lysosomal alpha-mannosidase IV)	DRSC03222	inactive
180	Tsp97E (Tetraspanin 97E)	DRSC16019	inactive
181	ttm50 (tiny tim 50)	DRSC18587	inactive
182	CG4972	DRSC02798	inactive
183	CG5246	DRSC15751	inactive
184	ed (echinoid)	DRSC00350	inactive
185	ed (echinoid)	DRSC00438	inactive
186	ed (echinoid)	DRSC00439	inactive
187	ed (echinoid)	DRSC00478	inactive
188	CG15446	DRSC20518	inactive
189	nenya	DRSC13838	inactive
190	IntS9 (Integrator 9)	DRSC10493	inactive
191	Brd7-9 (Bromodomain containing 7/9)	DRSC03017	inactive
192	Cap-D2 (CAP-D2 condensin subunit)	DRSC15401	inactive
193	Jhbp4 (Juvenile hormone binding protein 4)	DRSC14222	inactive
194	CG7945	DRSC10934	inactive
195	Flacc (Fl(2)d-associated complex component)	DRSC20040	inactive
196	Bet1 (Blocked early in transport 1)	DRSC10088	inactive
197	CG5421	DRSC02858	inactive
198	TTLL6A (Tubulin tyrosine ligase-like 6A)	DRSC06618	inactive
199	CG16749	DRSC15146	inactive
200	Sln (Silnoon)	DRSC07133	inactive

Targets above whose gene name begins with Y or y (4):
gene	amplicon	call
yuri (yuri gagarin)	DRSC01453	inactive
yuri (yuri gagarin)	DRSC01454	inactive
yuri (yuri gagarin)	DRSC01943	inactive
yuri (yuri gagarin)	DRSC01972	inactive
